In all, about 360,000 compounds went through this assay and about 290 (0.081%) were called active. The shares of active, inactive and inconclusive entries below differ from those in the screen. Calls follow the shape of the dose curve; as a rule, active = well fitted activation curve with a large enough effect; inconclusive = small, poorly fitted or top-dose-only effect; inactive = no such curve, though single readings can be large or run the other way. A potency beside an inconclusive call is a rough fit, not a confirmed value.
The compounds below were run against Rap guanine nucleotide exchange factor 4 (Homo sapiens) (UniProt Q8WZA2) (assay: qHTS for Agonist of cAMP-regulated guanine nucleotide exchange factor 4 (EPAC2): primary screen). Conditions: biochemical qHTS; Potency: EPAC2 activation unless noted; activation: at 154 µM (top of the series), 100% = 6.5 mM cAMP response unless noted.
Summary of the method: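 Guanine nucleotide exchange by EPAC2 is measured as reduced fluorescence of BODIPY-GDP once it is released from 250 nM Rap1B. Plates are read kinetically for 30 min at room temperature; results are scaled to 6.5 mM cAMP.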
Also: nearly all actives have a fitted effect of over 50% in size.
Potency is read from the fitted curve at half-maximal effect.

Chains of the proteins cited; added tags and fusions are not shown.
UniProt Q8WZA2, whole entry, looked up: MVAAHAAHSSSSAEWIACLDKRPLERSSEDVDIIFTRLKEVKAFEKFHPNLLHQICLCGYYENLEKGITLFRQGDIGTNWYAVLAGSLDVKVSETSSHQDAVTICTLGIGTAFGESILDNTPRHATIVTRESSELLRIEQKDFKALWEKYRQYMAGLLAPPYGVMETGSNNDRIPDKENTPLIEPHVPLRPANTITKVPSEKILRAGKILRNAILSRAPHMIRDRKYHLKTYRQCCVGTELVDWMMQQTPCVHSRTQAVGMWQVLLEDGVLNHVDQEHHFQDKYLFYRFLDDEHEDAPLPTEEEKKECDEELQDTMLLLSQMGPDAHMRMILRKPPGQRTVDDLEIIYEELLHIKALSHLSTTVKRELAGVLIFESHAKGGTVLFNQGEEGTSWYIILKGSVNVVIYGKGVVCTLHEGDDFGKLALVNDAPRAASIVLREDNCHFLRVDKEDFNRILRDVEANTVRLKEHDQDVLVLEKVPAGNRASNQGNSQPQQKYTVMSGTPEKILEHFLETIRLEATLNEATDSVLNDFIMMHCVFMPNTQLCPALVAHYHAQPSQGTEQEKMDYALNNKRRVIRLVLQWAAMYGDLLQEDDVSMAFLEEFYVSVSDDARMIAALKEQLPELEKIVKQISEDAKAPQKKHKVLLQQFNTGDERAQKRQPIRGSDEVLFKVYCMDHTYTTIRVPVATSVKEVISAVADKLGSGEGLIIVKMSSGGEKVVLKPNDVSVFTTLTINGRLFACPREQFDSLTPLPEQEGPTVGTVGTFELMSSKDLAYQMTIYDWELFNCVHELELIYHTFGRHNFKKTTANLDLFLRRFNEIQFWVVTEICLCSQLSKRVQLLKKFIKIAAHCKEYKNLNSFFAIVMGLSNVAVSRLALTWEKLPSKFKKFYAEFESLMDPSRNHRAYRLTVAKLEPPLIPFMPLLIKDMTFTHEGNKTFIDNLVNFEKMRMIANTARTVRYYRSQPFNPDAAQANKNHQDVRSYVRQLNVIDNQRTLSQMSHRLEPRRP

Question: For `COc1ccc(-n2nnnc2SCc2nc3ccccc3s2)cc1`, which Potency is on record?
Answer: Its Potency is inconclusive: 50.1 µM [activator, single point].

Question: Which “activation” value does the source give for `O=C(CCc1ccc(S(=O)(=O)N2CCOCC2)cc1)Nc1nc(COc2ccccc2)cs1` here?
Answer: Its value is inactive: 4.97%.

Question: How did the “activation” value turn out when `O=C(CN(CC1CCCO1)C(=O)CNS(=O)(=O)c1ccc(F)cc1)NCC1CCCO1` (stereo unspecified) was run?
Answer: The value was inactive: 4.65%.

Question: How did the “activation” value turn out when `Cc1cccc(Cn2c(=O)oc3ccc(C)cc32)c1` was run?
Answer: Its value is inactive: -3.46%.

Question: Which Potency does the source give for `O=c1oc2cc(O)ccc2cc1-c1nc2ccccc2o1` here?
Answer: Its Potency is inconclusive: 63.1 µM [activator, partial curve].

Question: How did the “activation” value turn out when `O=C(O)CCCC(=O)N1CCCC1` was run?
Answer: The value was inactive: 19%.

Question: With `Cc1cc(C)cc(-n2c(C)cc(C(=O)CSc3nnnn3C)c2C)c1` as the compound, how does the Potency read?
Answer: The Potency was inconclusive: 112 µM [activator, single point].

Question: With `Clc1ccccc1CN1CCN(/N=C/C=C\c2ccco2)CC1` as the compound, how does the Potency read?
Answer: The Potency was inconclusive: 100 µM [activator, partial curve].

Question: `Cc1cnc(C(=O)OCC(=O)Nc2ccc(Oc3ccccc3)cc2)cn1` was tested. Which Potency did it give?
Answer: The Potency was inconclusive: 50.1 µM [activator, single point].

Question: With `COC(=O)CN1C(=S)N(c2ccc(OC)cc2)C(=O)/C1=C/c1ccc(N2CCOCC2)cc1` as the compound, how does the Potency read?
Answer: Its Potency is inconclusive: 100 µM [activator, partial curve].

Question: `C=CCn1c(/N=C/c2ccc(N(C)C)cc2)nc2ccccc21` was tested. Which Potency did it give?
Answer: The Potency was inconclusive: 79.4 µM [activator, partial curve].

Question: How did the Potency turn out when `COCCNc1ccc(S(=O)(=O)N2CCCC2)cn1` was run?
Answer: The Potency was inconclusive: 100 µM [activator, partial curve].

Question: For `CCN1CCN(C(c2ccc(OC)cc2)C(O)C(=O)c2c[nH]c3ccccc23)CC1` (stereo unspecified), which activation is on record?
Answer: Its activation is inconclusive: 99.8% [activator] [at 15.6 µM, 100% = 6.5 mM cAMP response].

Question: `Cc1ccc(C(=O)CSC2=C(C#N)C(c3ccco3)CC(=O)N2)c(C)c1` (stereo unspecified) was tested. Which “activation” value did it give?
Answer: The value was inactive: 12.8%.

Question: Which Potency does the source give for `CC[C@@]1(O)C(=O)OCc2c1cc1n(c2=O)Cc2cc3c(CN(C)C)c(O)ccc3nc2-1` here?
Answer: Its Potency is inconclusive: 3.16 µM [activator, full curve, poor fit].

Question: How did the Potency turn out when `CNC(=S)N/N=C/c1c2ccccc2c(Cl)c2ccccc12` was run?
Answer: Its Potency is inconclusive: 79.4 µM [activator, partial curve].

Question: How did the Potency turn out when `CCOC(=O)/C(=C\c1ccc(N2CCC(c3ccccc3)=N2)cc1)C(C)=O` was run?
Answer: Its Potency is active: 100 µM.

Question: For `CCc1nc2ccc(C(=O)NCCCN3CCCC3=O)cn2c1N(C)C(=O)COc1ccccc1`, which “activation” value is on record?
Answer: The value was inactive: 5.42%.

Question: For `CN(C)c1ccc(N=Cc2nc(-c3ccccc3)oc2OC(=O)c2cccc(Cl)c2)cc1`, which Potency is on record?
Answer: Its Potency is inconclusive: 112 µM [activator, single point].

Question: How did the “activation” value turn out when `O=C(CN1C(=O)CCC1=O)Nc1nc(-c2ccccn2)cs1` was run?
Answer: Its value is inactive: 15%.

Question: For `COC(=O)c1cc2c(n1S(=O)(=O)c1ccc(C)cc1)C(=O)C(=O)c1[nH]cc(C(=O)OCc3ccccc3)c1-2`, which “activation” value is on record?
Answer: Its value is inactive: -7.29%.

Question: `Cn1cc(/C=C2\SC(=S)N(NC(=O)c3ccccc3Cl)C2=O)c2ccccc21` was tested. Which Potency did it give?
Answer: Its Potency is inconclusive: 112 µM [activator, single point].

Question: With `COc1ccc(OC)c(N=Cc2c(O)c3ccccc3oc2=O)c1` as the compound, how does the Potency read?
Answer: The Potency was inconclusive: 100 µM [activator, partial curve].

Question: For `CCC1(c2ccccc2)NC(=O)N(CC(=O)Nc2ccc(OC)nc2)C1=O` (stereo unspecified), which Potency is on record?
Answer: The Potency was inconclusive: 112 µM [activator, partial curve].

Question: `CCN(CC)c1ccc2cc(C(C)=O)c(=O)oc2c1` was tested. Which Potency did it give?
Answer: Its Potency is inconclusive: 112 µM [activator, partial curve].

Question: How did the Potency turn out when `CCCCCCc1cc2cc(-c3nnc(-c4ccccc4O)o3)c(=O)oc2cc1O` was run?
Answer: The Potency was inconclusive: 100 µM [activator, single point].

Question: With `O=C(O)c1ccc(NC2=C(N3CCOCC3)C(=O)c3ccccc3C2=O)cc1` as the compound, how does the “activation” value read?
Answer: The value was inactive: -12.1%.

Question: How did the Potency turn out when `COc1ccc2c(c1)cc(C(=O)N/N=C/c1c(O)c(C(=O)O)cc3ccccc13)n2C` was run?
Answer: The Potency was inconclusive: 31.6 µM [activator, full curve].

Question: With `O=C(NNC(=O)C1CC1c1ccccc1)c1ccccc1[N+](=O)[O-]` (stereo unspecified) as the compound, how does the “activation” value read?
Answer: Its value is inactive: 3.12%.

Question: For `O=C(NCCc1ccccn1)c1cccc(S(=O)(=O)N2CCc3ccccc32)c1`, which Potency is on record?
Answer: Its Potency is inconclusive: 100 µM [activator, partial curve].

Question: `N=C1/C(=C/c2cccs2)C(=O)N=C2SN=C(SCc3ccccc3)N12` was tested. Which “activation” value did it give?
Answer: Its value is inactive: -1.93%.

Question: How did the Potency turn out when `COc1ccc(-c2onc3ccc(C(=O)/C=C/N(C)C)cc23)cc1` was run?
Answer: Its Potency is inconclusive: 89.1 µM [activator, partial curve].

Question: `COc1ccc(OC)c(/C=c2\sc3nc(-c4cccs4)nn3c2=O)c1` was tested. Which Potency did it give?
Answer: Its Potency is active: 100 µM.

Question: Which activation does the source give for `Cn1c(=O)c2c(nc(NCCc3ccccc3)n2CC(=O)NCCc2ccccc2)n(C)c1=O` here?
Answer: The activation was inconclusive: 30.3% [activator] [at 15.6 µM, 100% = 6.5 mM cAMP response].

Question: For `CCN(CC(=O)NC1CCS(=O)(=O)C1)S(=O)(=O)c1ccc(C)c(C)c1` (stereo unspecified), which Potency is on record?
Answer: The Potency was inconclusive: 50.1 µM [activator, single point].

Question: Which Potency does the source give for `O=S(=O)(O)c1cccc2c(N=Nc3ccc(O)c4ncccc34)cccc12` here?
Answer: The Potency was inconclusive: 63.1 µM [activator, partial curve].

Question: `CCOC(=O)C(C(=O)OCC)C(C#N)c1ccccc1` (stereo unspecified) was tested. Which Potency did it give?
Answer: Its Potency is inconclusive: 50.1 µM [activator, single point].

Question: For `Cc1nc(NC(=O)c2cncc(Br)c2)ccc1Br`, which Potency is on record?
Answer: Its Potency is inconclusive: 112 µM [activator, single point].

Question: Which Potency does the source give for `O=C1C=C(O)CC(c2ccco2)C1` (stereo unspecified) here?
Answer: Its Potency is inconclusive: 100 µM [activator, partial curve].

Question: How did the Potency turn out when `CCN1/C(=C/C=C2/SC(=Nc3cccc4ncccc34)N(C)C2=O)Sc2ccccc21` was run?
Answer: The Potency was inconclusive: 112 µM [activator, partial curve].

Question: For `Nc1ccc2cc3[nH]c4cc(N)ccc4c3nc2c1`, which Potency is on record?
Answer: The Potency was active: 56.2 µM.

Question: `O=C(CSc1ncnc2[nH]ncc12)Nc1cccc(Oc2ccccc2)c1` was tested. Which Potency did it give?
Answer: Its Potency is active: 31.6 µM.

Question: For `COc1ccc(/C=N/Nc2ccc([N+](=O)[O-])cc2S(=O)(=O)N2CCN(C)CC2)cc1`, which Potency is on record?
Answer: Its Potency is inconclusive: 79.4 µM [activator, partial curve].

Question: Which Potency does the source give for `Nc1ncnc2c1nc(Br)n2[C@@H]1O[C@@H]2COP(=O)(O)O[C@H]2[C@H]1O` here?
Answer: The Potency was inconclusive: 112 µM [activator, partial curve, poor fit].

Question: Which Potency does the source give for `CCC(C)NC(=O)NCc1ccccc1F` (stereo unspecified) here?
Answer: Its Potency is inconclusive: 100 µM [activator, single point].

Question: For `CCCc1ccc(Oc2cn[nH]c2-c2ccc(O)cc2O)cc1`, which Potency is on record?
Answer: Its Potency is inconclusive: 112 µM [activator, partial curve].

Question: With `COc1cccc(/C=N/NC(=O)c2cc3cc([N+](=O)[O-])ccc3s2)c1O` as the compound, how does the Potency read?
Answer: The Potency was inconclusive: 79.4 µM [activator, partial curve].

Question: How did the Potency turn out when `Nc1ccc2nc3c(=O)[nH]c(=S)[nH]c3nc2c1` was run?
Answer: Its Potency is inconclusive: 31.6 µM [activator, partial curve].

Question: With `CCNc1cccc2c1C(=O)N(C)C2=O` as the compound, how does the Potency read?
Answer: Its Potency is inconclusive: 89.1 µM [activator, partial curve].

Question: `CCc1cc2cc(C)cc(C)c2nc1SCC(=O)N1CCN(C(=O)c2ccco2)CC1` was tested. Which Potency did it give?
Answer: The Potency was inconclusive: 70.8 µM [activator, partial curve, poor fit].

Question: `CN(C)S(=O)(=O)c1cccc(NC(=S)N/N=C/c2ccc(O)c(O)c2O)c1` was tested. Which “activation” value did it give?
Answer: Its value is inactive: 2.83%.

Question: With `CCn1c(O)c(C=Nc2ccccc2)sc1=S` as the compound, how does the “activation” value read?
Answer: The value was inactive: 5.71%.

Question: `CCOc1ccccc1C(=O)N1c2ccccc2Sc2ccccc21` was tested. Which Potency did it give?
Answer: Its Potency is inconclusive: 112 µM [activator, partial curve].

Question: Which Potency does the source give for `CCN(CC)CCCN(Cc1cc2cc3c(cc2[nH]c1=O)OCO3)C(=S)Nc1ccc(OC)cc1` here?
Answer: Its Potency is inconclusive: 126 µM [activator, partial curve, poor fit].

Question: With `O=S(=O)(NCCc1csc(-c2cccnc2)n1)c1cccs1` as the compound, how does the Potency read?
Answer: Its Potency is inconclusive: 126 µM [activator, single point].

Question: For `Cn1cc(-c2ccccc2C(N)=O)c(=O)c2cc(Cl)ccc21`, which “activation” value is on record?
Answer: Its value is inactive: 2.35%.

Question: With `CC/C(=N\N=C(/CC)c1ccccc1N)c1ccccc1N` as the compound, how does the “activation” value read?
Answer: The value was inactive: 11.4%.

Question: Which Potency does the source give for `COC(=O)Cc1c(C)c2ccc(OC(=O)c3ccco3)cc2oc1=O` here?
Answer: Its Potency is active: 6.31 µM.

Question: `O=C(Nc1c(Cl)cccc1Cl)c1cc(=O)n(Cc2ccccc2)c(=O)[nH]1` was tested. Which Potency did it give?
Answer: The Potency was inconclusive: 112 µM [activator, single point].

Question: With `O=C(Nc1nnc(-c2ccco2)s1)C1CCCCC1` as the compound, how does the Potency read?
Answer: Its Potency is inconclusive: 1 µM [activator, full curve].

Question: `O=C(Nc1ccccc1Br)c1ccc(OC(=S)N2CCOCC2)cc1` was tested. Which “activation” value did it give?
Answer: The value was inactive: 7.55%.

Question: `O=C(C1CCCN(Cc2ccccc2F)C1)N1CCc2ccccc2C1` (stereo unspecified) was tested. Which Potency did it give?
Answer: Its Potency is inconclusive: 126 µM [activator, single point].

Question: Which activation does the source give for `COc1cc(NC(=O)c2ccccc2)c(OC)cc1Cl` here?
Answer: Its activation is inconclusive: 36.7% [activator] [at 15.6 µM, 100% = 6.5 mM cAMP response].

Question: `CCOC(=O)c1cccc(S(=O)(=O)N2CCOCC2)c1` was tested. Which Potency did it give?
Answer: The Potency was inconclusive: 50.1 µM [activator, single point].

Question: Which “activation” value does the source give for `CCOc1ccc(CNCc2ccccc2Cl)cc1` here?
Answer: Its value is inactive: 2.07%.

Question: For `Cc1cc(N2CCOCC2)nc2ccc(NC(=S)NCCC(C)C)cc12`, which “activation” value is on record?
Answer: Its value is inactive: -1.01%.

Question: Which “activation” value does the source give for `O=C(CN1CCOCC1)NN=C1CCCCCCCCCCC1` here?
Answer: The value was inactive: 3.8%.

Question: Which Potency does the source give for `O=S(c1ccc2ccccc2c1)c1cnns1` (stereo unspecified) here?
Answer: The Potency was inconclusive: 100 µM [activator, single point].

Question: With `O=C1NC(=Nc2ccc(F)cc2)CS1` as the compound, how does the Potency read?
Answer: The Potency was inconclusive: 126 µM [activator, partial curve].

Question: Which “activation” value does the source give for `Cc1ccc(S(=O)(=O)NCC(=O)NCC(=O)N(C)Cc2ccc3ccccc3c2)cc1C` here?
Answer: Its value is inactive: 17.7%.

Question: `O=C(NCc1cccc(F)c1)c1cccc2c1C(=O)c1ccc(N3CCCC3)cc1S2(=O)=O` was tested. Which Potency did it give?
Answer: The Potency was inconclusive: 35.5 µM [activator, partial curve].
